The list shows a part of the results.
Tests used:
Assay in all cases: log2 fold change, soluble protein after heating vs DMSO (PISA); higher = thermal stabilisation; K562 lysate, 10 uM; active = over 0.2 and 3.5 SD of the protein, either way, in both replicates (recomputed)
alvocidib = compound: CN1CC[C@H](c2c(O)cc(O)c3c(=O)cc(-c4ccccc4Cl)oc23)[C@H](O)C1 [alvocidib]
Outline: (§1)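 Quantification was by TMTpro 16plex LC-MS/MS with equalised channel sums, applied to the supernatant after 21,000xg for 90 min. Samples were crude K562 extract at 1 mg/mL protein in PBS pH 7.4 with 1 mM MgCl2, treated with 10 μM compound for 30 min, heated for 3 min across 48°C-58°C, pooled and brought to 0.5% NP-40 at 4°C. Values are log-two fold changes in thermal stability relative to solvent controls, from duplicates.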

Chains of the proteins cited; added tags and fusions are not shown. Lines headed by an entry give the natural chain unless they say otherwise; changes in a name come on top.
UniProt Q04760: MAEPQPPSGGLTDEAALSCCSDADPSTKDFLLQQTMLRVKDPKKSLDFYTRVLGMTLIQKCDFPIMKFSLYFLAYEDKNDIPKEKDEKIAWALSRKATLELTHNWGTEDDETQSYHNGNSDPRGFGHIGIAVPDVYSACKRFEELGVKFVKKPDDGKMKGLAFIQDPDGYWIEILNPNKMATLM
UniProt Q9NWU2, whole entry, looked up: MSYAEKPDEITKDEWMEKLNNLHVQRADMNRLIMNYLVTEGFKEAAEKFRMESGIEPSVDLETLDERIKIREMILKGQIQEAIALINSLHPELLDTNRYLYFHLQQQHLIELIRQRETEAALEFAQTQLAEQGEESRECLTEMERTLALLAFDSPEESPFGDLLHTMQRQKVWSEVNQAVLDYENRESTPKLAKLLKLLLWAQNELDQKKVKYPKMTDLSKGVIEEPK
UniProt P49448: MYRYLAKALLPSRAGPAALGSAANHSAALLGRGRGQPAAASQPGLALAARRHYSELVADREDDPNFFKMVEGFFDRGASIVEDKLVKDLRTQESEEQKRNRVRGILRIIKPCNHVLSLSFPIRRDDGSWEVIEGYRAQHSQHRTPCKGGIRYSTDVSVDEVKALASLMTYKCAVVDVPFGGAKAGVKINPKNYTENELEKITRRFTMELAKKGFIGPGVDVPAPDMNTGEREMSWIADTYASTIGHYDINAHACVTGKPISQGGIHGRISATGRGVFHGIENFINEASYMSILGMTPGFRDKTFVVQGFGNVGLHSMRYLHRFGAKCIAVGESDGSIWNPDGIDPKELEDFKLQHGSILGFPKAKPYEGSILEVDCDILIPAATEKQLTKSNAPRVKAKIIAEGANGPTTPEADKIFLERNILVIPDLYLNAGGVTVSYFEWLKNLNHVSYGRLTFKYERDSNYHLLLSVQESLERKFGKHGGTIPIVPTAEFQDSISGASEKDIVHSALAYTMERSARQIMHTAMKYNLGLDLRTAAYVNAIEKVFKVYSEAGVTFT
UniProt Q9HC38: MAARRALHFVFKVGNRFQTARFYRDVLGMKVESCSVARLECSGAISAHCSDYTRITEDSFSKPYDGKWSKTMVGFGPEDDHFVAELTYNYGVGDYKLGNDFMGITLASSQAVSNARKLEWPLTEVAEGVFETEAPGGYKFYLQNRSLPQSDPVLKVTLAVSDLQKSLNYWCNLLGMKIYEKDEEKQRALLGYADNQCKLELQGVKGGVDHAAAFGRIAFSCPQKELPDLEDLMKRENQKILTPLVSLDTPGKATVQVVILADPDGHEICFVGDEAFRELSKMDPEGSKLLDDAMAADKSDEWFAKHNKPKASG
UniProt Q53EU6: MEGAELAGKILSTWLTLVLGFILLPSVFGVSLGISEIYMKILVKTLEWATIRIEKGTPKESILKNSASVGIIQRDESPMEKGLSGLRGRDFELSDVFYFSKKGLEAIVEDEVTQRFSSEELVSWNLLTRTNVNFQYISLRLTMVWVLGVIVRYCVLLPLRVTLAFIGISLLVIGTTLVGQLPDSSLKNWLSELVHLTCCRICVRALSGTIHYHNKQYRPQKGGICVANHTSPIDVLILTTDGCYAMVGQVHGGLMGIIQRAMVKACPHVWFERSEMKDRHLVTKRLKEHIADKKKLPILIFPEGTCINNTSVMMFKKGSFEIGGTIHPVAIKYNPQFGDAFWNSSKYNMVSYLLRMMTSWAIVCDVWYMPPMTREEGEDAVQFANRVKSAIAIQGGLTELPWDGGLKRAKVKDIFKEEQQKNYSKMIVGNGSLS
UniProt Q8IW92: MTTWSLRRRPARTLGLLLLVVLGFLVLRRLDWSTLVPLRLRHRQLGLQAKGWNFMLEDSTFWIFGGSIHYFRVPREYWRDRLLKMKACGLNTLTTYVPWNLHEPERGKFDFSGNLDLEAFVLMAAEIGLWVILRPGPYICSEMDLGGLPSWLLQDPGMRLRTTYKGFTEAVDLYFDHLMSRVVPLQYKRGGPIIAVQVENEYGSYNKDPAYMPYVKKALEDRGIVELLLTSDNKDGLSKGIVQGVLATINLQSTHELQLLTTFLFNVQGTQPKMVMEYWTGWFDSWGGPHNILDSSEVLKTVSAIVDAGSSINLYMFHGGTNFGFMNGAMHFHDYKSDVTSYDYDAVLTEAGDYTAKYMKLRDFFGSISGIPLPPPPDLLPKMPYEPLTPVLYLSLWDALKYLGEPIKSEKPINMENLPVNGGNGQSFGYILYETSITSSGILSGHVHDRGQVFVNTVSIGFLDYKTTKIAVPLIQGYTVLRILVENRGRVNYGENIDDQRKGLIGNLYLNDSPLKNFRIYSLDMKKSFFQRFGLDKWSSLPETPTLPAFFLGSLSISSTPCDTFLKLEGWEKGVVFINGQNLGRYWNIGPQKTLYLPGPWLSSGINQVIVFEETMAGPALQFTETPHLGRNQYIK
UniProt Q9Y2X7: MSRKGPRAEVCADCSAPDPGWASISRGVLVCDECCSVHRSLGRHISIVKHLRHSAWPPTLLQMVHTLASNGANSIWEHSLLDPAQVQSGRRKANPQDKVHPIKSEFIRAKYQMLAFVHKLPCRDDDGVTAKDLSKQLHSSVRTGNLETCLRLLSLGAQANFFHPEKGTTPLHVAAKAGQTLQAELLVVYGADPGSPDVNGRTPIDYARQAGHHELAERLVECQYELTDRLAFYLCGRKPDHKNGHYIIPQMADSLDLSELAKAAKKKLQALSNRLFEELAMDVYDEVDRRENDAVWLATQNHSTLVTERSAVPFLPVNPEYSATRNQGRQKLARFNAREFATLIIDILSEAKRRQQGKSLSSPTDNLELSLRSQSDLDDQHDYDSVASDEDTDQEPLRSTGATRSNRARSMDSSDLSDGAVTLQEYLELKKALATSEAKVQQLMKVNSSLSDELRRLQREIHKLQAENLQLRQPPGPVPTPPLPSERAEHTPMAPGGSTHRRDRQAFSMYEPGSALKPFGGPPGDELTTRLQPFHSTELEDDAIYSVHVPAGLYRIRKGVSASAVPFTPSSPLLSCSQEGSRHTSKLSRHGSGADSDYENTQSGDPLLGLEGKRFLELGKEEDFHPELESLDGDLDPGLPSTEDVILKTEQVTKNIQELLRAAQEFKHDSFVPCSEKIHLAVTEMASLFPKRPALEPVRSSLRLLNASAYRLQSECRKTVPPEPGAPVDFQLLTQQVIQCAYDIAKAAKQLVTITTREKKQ
UniProt O94925: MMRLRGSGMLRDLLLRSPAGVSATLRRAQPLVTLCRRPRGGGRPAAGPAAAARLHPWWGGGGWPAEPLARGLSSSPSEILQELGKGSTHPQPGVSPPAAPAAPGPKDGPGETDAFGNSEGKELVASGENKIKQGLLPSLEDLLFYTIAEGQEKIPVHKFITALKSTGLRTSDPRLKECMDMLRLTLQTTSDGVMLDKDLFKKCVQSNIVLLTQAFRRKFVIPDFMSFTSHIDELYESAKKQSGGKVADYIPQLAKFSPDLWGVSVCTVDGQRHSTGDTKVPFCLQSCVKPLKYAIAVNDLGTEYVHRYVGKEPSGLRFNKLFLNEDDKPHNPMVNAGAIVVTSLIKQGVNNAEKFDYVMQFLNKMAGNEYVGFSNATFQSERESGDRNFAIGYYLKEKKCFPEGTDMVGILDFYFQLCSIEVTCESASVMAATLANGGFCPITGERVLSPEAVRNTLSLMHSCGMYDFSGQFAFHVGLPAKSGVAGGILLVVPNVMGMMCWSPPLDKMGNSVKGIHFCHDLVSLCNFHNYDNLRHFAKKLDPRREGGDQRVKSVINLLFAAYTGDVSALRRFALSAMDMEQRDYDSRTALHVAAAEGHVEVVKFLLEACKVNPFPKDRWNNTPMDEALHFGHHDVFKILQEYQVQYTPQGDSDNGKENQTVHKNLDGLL
UniProt Q13098: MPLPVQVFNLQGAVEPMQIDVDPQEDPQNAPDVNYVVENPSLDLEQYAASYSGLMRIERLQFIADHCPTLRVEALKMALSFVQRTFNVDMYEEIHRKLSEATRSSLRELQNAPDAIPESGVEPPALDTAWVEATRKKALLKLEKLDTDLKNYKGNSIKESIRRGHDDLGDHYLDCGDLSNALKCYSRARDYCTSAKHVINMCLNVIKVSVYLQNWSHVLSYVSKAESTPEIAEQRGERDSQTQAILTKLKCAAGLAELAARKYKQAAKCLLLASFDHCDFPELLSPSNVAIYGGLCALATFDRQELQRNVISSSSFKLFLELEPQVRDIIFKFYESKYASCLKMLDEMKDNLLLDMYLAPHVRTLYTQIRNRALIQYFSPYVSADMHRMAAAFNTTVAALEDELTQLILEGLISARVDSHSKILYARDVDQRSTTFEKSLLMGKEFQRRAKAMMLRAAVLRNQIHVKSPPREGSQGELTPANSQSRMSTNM
UniProt P49915: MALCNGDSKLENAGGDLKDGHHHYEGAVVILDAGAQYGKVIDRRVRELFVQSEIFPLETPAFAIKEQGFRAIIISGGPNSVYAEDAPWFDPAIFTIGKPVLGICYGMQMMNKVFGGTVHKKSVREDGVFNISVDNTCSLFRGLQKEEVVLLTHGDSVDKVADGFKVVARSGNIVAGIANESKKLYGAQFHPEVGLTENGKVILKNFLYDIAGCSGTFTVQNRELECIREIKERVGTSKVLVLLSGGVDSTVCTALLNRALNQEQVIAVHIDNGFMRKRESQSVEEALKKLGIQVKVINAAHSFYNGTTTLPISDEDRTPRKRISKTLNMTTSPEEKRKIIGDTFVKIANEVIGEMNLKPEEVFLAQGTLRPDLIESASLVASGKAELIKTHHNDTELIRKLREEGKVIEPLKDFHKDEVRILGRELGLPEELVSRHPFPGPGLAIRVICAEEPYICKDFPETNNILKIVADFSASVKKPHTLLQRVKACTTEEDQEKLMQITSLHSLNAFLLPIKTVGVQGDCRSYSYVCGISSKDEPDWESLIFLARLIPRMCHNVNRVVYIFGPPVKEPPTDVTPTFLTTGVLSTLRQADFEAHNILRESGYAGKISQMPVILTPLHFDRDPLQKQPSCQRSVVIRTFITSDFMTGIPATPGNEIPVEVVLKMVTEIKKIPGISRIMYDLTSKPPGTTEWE
UniProt Q08378: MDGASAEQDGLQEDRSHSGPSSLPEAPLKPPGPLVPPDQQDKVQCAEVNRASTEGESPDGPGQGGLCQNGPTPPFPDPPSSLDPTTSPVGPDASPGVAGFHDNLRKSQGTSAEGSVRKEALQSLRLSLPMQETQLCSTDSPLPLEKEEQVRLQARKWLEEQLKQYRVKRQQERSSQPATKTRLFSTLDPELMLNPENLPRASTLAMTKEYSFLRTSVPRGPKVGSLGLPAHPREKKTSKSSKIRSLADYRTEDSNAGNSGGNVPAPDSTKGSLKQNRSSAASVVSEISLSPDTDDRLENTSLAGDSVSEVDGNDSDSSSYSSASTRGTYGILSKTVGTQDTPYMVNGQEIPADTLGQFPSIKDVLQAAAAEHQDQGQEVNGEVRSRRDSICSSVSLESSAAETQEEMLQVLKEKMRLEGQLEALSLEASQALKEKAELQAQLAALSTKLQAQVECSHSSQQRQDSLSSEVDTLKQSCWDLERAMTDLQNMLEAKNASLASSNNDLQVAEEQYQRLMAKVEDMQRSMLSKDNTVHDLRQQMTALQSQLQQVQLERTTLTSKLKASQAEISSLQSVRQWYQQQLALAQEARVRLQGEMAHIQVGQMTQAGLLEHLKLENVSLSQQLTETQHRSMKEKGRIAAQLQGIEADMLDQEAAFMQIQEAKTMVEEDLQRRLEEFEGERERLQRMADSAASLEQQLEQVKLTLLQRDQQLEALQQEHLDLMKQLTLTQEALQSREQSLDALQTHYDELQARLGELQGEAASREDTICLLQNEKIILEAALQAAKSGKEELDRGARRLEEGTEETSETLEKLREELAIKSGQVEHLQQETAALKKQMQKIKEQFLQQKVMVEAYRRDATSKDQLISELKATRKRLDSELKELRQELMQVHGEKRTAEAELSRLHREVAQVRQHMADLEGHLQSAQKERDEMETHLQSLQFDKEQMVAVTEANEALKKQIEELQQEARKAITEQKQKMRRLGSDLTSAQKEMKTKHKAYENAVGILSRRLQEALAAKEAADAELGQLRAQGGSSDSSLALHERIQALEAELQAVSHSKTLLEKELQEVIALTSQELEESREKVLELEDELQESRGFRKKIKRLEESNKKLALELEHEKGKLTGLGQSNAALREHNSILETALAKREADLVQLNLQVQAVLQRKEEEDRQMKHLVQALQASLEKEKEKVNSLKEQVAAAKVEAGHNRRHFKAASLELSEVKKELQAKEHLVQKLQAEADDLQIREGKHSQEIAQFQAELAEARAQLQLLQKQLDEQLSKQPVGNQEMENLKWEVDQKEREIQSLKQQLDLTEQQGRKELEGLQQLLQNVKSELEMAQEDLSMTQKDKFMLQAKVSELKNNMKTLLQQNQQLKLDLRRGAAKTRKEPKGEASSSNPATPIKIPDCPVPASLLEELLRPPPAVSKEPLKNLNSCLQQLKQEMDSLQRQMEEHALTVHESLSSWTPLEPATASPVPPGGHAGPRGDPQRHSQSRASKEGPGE

Tubastatin A = compound: CN1CCc2c(c3ccccc3n2Cc2ccc(C(=O)NO)cc2)C1 [Tubastatin A]
Outline: as §1

[1] = compound: CNC(=O)C1=CC=CC=C1NC2=NC(=NC=C2Cl)NC3=C(C=C(C=C3)N4CCOCC4)OC
Outline: as §1

defactinib = compound: CNC(=O)c1ccc(Nc2ncc(C(F)(F)F)c(NCc3nccnc3N(C)S(C)(=O)=O)n2)cc1 [defactinib]
Outline: as §1

[2] = compound: CNc1nc(-c2ccc3c(N)n[nH]c3c2)cc(N2C[C@@H](C(=O)NC3CCCCC3)CC[C@H]2C)n1
Outline: as §1

encorafenib = compound: COC(=O)N[C@@H](C)CNc1nccc(-c2cn(C(C)C)nc2-c2cc(Cl)cc(NS(C)(=O)=O)c2F)n1 [encorafenib]
Outline: as §1

[3] = compound: COC(=O)[C@H](CCSC)NC(=O)C1=C(C=C(C=C1)NC[C@H](CS)N)C2=CC=CC=C2
Outline: as §1

alisertib = compound: COc1cc(Nc2ncc3c(n2)-c2ccc(Cl)cc2C(c2c(F)cccc2OC)=NC3)ccc1C(=O)O [alisertib]
Outline: as §1

[4] = compound: COc1cc2nc(-c3cc(F)ccc3O)nc(N[C@@H]3CNC[C@H]3C(C)(C)O)c2cc1OC
Outline: as §1

gefitinib = compound: COc1cc2ncnc(Nc3ccc(F)c(Cl)c3)c2cc1OCCCN1CCOCC1 [gefitinib]
Outline: as §1

lapatinib = compound: CS(=O)(=O)CCNCc1ccc(-c2ccc3ncnc(Nc4ccc(OCc5cccc(F)c5)c(Cl)c4)c3c2)o1 [lapatinib]
Outline: as §1

pictilisib = compound: CS(=O)(=O)N1CCN(Cc2cc3nc(-c4cccc5[nH]ncc45)nc(N4CCOCC4)c3s2)CC1 [pictilisib]
Outline: as §1

crizotinib = compound: C[C@@H](Oc1cc(-c2cnn(C3CCNCC3)c2)cnc1N)c1c(Cl)ccc(F)c1Cl [crizotinib]
Outline: as §1

[5] = compound: C[C@H](C1=CC=C(C=C1)C(=O)NC2=C3C=CNC3=NC=C2)N
Outline: as §1

duvelisib = compound: C[C@H](Nc1ncnc2nc[nH]c12)c1cc2cccc(Cl)c2c(=O)n1-c1ccccc1 [duvelisib]
Outline: as §1

gandotinib = compound: Cc1cc(Nc2cc(CN3CCOCC3)c3nc(C)c(Cc4ccc(Cl)cc4F)n3n2)n[nH]1 [gandotinib]
Outline: as §1

tozasertib = compound: Cc1cc(Nc2cc(N3CCN(C)CC3)nc(Sc3ccc(NC(=O)C4CC4)cc3)n2)n[nH]1 [tozasertib]
Outline: as §1

doramapimod = compound: Cc1ccc(-n2nc(C(C)(C)C)cc2NC(=O)Nc2ccc(OCCN3CCOCC3)c3ccccc23)cc1 [doramapimod]
Outline: as §1

bafetinib = compound: Cc1ccc(NC(=O)c2ccc(CN3CC[C@H](N(C)C)C3)c(C(F)(F)F)c2)cc1Nc1nccc(-c2cncnc2)n1 [bafetinib]
Outline: as §1

[6] = compound: Cc1cccc(CC(=O)N2CCc3c2ccc(-c2cn(C)c4ncnc(N)c24)c3F)n1
Outline: as §1

Measured: log2 fold change

GID4 (UniProt Q8IVV7)
inactive: alvocidib 0.045 | Tubastatin A -0.041 | [1] -0.001 | defactinib 0.017 | [2] 0.035 | encorafenib -0.058 | [3] -0.013 | alisertib -0.023 | [4] -0.029 | gefitinib -0.012 | lapatinib -0.045 | pictilisib -0.035 | crizotinib -0.043 | [5] -0.022 | duvelisib 0.079 | gandotinib 0.012 | tozasertib -0.014 | doramapimod -0.011 | bafetinib 0.03 | [6] -0.031

GLO1 (UniProt Q04760)
inactive: alvocidib 0.01 | Tubastatin A 0.059 | [1] -0.015 | defactinib -0.032 | [2] 0.034 | encorafenib -0.021 | [3] -0.078 | alisertib 0.013 | [4] -0.015 | gefitinib 0.007 | lapatinib 0.007 | pictilisib -0.007 | crizotinib -0.014 | [5] -0.066 | duvelisib 0.027 | gandotinib 0.032 | tozasertib 0.007 | doramapimod 0.04 | bafetinib 0.034 | [6] 0.002

GPI (UniProt P06744)
inactive: alvocidib 0.017 | Tubastatin A 0.028 | [1] -0.028 | defactinib -0.027 | [2] -0.073 | encorafenib -0.029 | [3] 0.001 | alisertib 0.011 | [4] -0.004 | gefitinib 0.001 | lapatinib -0.017 | pictilisib 0.022 | crizotinib 0.032 | [5] 0.003 | duvelisib 0.004 | gandotinib -0.013 | tozasertib -0.007 | doramapimod 0 | bafetinib 0.038 | [6] -0.004

GID8 (UniProt Q9NWU2)
inactive: alvocidib 0.004 | Tubastatin A -0.028 | [1] 0.031 | defactinib 0.042 | [2] 0.04 | encorafenib 0.053 | [3] -0.055 | alisertib 0.026 | [4] 0.024 | gefitinib -0.067 | lapatinib -0.003 | pictilisib -0.037 | crizotinib 0.007 | [5] 0.032 | duvelisib -0.003 | gandotinib -0.029 | tozasertib -0.036 | doramapimod -0.028 | bafetinib -0.02 | [6] 0.018

GLUD2 (UniProt P49448)
inactive: alvocidib -0.029 | Tubastatin A 0.12 | [1] 0.053 | defactinib 0.061 | [2] 0.02 | encorafenib 0.066 | [3] 0.115 | alisertib -0.06 | [4] -0.021 | gefitinib 0.036 | lapatinib -0.009 | pictilisib 0.144 | crizotinib -0.097 | [5] -0.004 | duvelisib 0.001 | gandotinib 0.099 | tozasertib 0.03 | doramapimod -0.028 | bafetinib 0.049 | [6] 0.024

GLOD4 isoform 2 (UniProt Q9HC38)
inactive: alvocidib 0.007 | Tubastatin A 0.046 | [1] -0.015 | defactinib -0.033 | [2] -0.007 | encorafenib -0.034 | [3] 0.025 | alisertib 0 | [4] 0.002 | gefitinib 0.014 | lapatinib -0.005 | pictilisib -0.005 | crizotinib 0.016 | [5] 0.021 | duvelisib 0 | gandotinib -0.035 | tozasertib 0.002 | doramapimod -0.012 | bafetinib 0.035 | [6] -0.016

GPAT3 (UniProt Q53EU6)
inactive: alvocidib 0 | Tubastatin A 0.081 | [1] -0.008 | defactinib -0.02 | [2] -0.053 | encorafenib 0.035 | [3] -0.111 | alisertib 0.019 | [4] -0.006 | gefitinib 0.017 | lapatinib -0.032 | pictilisib 0 | crizotinib 0.016 | [5] -0.166 | duvelisib 0.059 | gandotinib 0.026 | tozasertib 0.004 | doramapimod -0.009 | bafetinib -0.162 | [6] 0.073

GLB1L2 (UniProt Q8IW92)
inactive: alvocidib -0.087 | Tubastatin A 0.069 | [1] 0.088 | defactinib -0.014 | [2] 0.151 | encorafenib -0.016 | [3] -0.085 | alisertib 0.033 | [4] -0.008 | gefitinib -0.079 | lapatinib -0.016 | pictilisib -0.039 | crizotinib -0.006 | [5] -0.104 | duvelisib 0.033 | gandotinib 0.11 | tozasertib 0.116 | doramapimod 0.009 | bafetinib 0.032 | [6] 0.061

GPAA1 (UniProt O43292)
inactive: alvocidib -0.013 | Tubastatin A 0.003 | [1] 0.007 | defactinib -0.014 | [2] 0.039 | encorafenib -0.018 | [3] -0.004 | alisertib 0.053 | [4] -0.013 | gefitinib 0.015 | lapatinib -0.091 | pictilisib -0.05 | crizotinib -0.072 | [5] 0.041 | duvelisib -0.006 | gandotinib -0.051 | tozasertib -0.001 | doramapimod 0.012 | bafetinib -0.058 | [6] 0.137

GNB3 (UniProt P16520)
inactive: alvocidib -0.027 | Tubastatin A 0.147 | [1] -0.067 | defactinib -0.032 | [2] 0.174 | encorafenib -0.042 | [3] -0.1 | alisertib 0.018 | [4] 0.038 | gefitinib 0.155 | lapatinib -0.083 | pictilisib 0.014 | crizotinib -0.114 | [5] -0.112 | duvelisib -0.127 | gandotinib 0.099 | tozasertib 0.08 | doramapimod 0.071 | bafetinib -0.164 | [6] 0.095

GIT1 (UniProt Q9Y2X7)
inactive: alvocidib 0.015 | Tubastatin A -0.04 | [1] 0.022 | defactinib 0.023 | [2] -0.084 | encorafenib 0.002 | [3] 0.026 | alisertib 0.05 | [4] -0.011 | gefitinib -0.031 | lapatinib 0.029 | pictilisib -0.007 | crizotinib -0.015 | [5] 0.009 | duvelisib -0.08 | gandotinib -0.076 | tozasertib -0.002 | doramapimod -0.004 | bafetinib -0.047 | [6] -0.007

GLS isoform 3 (UniProt O94925)
inactive: alvocidib 0.029 | Tubastatin A -0.085 | [1] -0.017 | defactinib 0.009 | [2] -0.029 | encorafenib -0.009 | [3] 0.079 | alisertib -0.001 | [4] -0.082 | gefitinib 0.011 | lapatinib 0.029 | pictilisib -0.077 | crizotinib -0.04 | [5] 0.038 | duvelisib -0.021 | gandotinib -0.015 | tozasertib 0.041 | doramapimod -0.019 | bafetinib -0.015 | [6] 0.046

GPS1 isoform 6 (UniProt Q13098)
inactive: alvocidib -0.043 | Tubastatin A -0.014 | [1] -0.042 | defactinib 0 | [2] -0.047 | encorafenib 0.035 | [3] -0.016 | alisertib -0.035 | [4] 0.024 | gefitinib 0 | lapatinib -0.007 | pictilisib -0.004 | crizotinib 0.018 | [5] -0.087 | duvelisib -0.004 | gandotinib 0.019 | tozasertib 0.015 | doramapimod -0.05 | bafetinib -0.003 | [6] 0.014

GMPS (UniProt P49915)
inactive: alvocidib 0.04 | Tubastatin A -0.065 | [1] -0.009 | defactinib 0.014 | [2] -0.025 | encorafenib -0.022 | [3] 0.025 | alisertib 0.005 | [4] -0.003 | gefitinib -0.026 | lapatinib -0.008 | pictilisib -0.014 | crizotinib 0.007 | [5] 0.115 | duvelisib 0.006 | gandotinib -0.071 | tozasertib -0.001 | doramapimod -0.036 | bafetinib -0.012 | [6] -0.032

GLE1 (UniProt Q53GS7)
inactive: alvocidib 0.217 | Tubastatin A 0.166 | [1] 0.048 | defactinib 0.098 | [2] 0.067 | encorafenib 0.01 | [3] 0.098 | alisertib -0.018 | [4] 0.116 | gefitinib -0.081 | lapatinib -0.017 | pictilisib 0.178 | crizotinib -0.089 | [5] -0.247 | duvelisib -0.107 | gandotinib -0.135 | tozasertib 0.057 | doramapimod -0.062 | bafetinib 0.198 | [6] 0.027

GOLGA3 (UniProt Q08378)
inactive: alvocidib 0.007 | Tubastatin A 0.02 | [1] 0.015 | defactinib 0.008 | [2] 0.058 | encorafenib -0.005 | [3] -0.019 | alisertib -0.007 | [4] 0.004 | gefitinib -0.011 | lapatinib -0.006 | pictilisib -0.02 | crizotinib 0.008 | [5] 0.004 | duvelisib 0.027 | gandotinib 0.013 | tozasertib 0.002 | doramapimod -0.013 | bafetinib -0.008 | [6] -0.021
